Assay results taken from patent publication US20150299277A1, “AGENT FOR TREATING OR PREVENTING SYSTEMIC INFLAMMATORY RESPONSE SYNDROME” (THE UNIVERSITY OF TOKYO, priority 2012, published 2015).
Results are given in words; binding and its absence hold for the method and conditions named. Some results given as binding are weak or reduced against the parent protein; the word gives no strength.

The chains behind the UniProt entries cited, without tags or fusion partners. Where a name states a change or a piece, a line headed by the entry shows the natural chain unless it says otherwise. Residues count along the entry.
UniProt P07305, residues 2-194: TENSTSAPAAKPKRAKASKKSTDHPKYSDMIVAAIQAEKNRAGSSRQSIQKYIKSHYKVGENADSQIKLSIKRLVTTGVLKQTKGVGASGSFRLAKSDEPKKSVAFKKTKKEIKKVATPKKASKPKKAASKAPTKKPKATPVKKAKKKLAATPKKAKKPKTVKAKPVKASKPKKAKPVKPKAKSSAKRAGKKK
UniProt P26022: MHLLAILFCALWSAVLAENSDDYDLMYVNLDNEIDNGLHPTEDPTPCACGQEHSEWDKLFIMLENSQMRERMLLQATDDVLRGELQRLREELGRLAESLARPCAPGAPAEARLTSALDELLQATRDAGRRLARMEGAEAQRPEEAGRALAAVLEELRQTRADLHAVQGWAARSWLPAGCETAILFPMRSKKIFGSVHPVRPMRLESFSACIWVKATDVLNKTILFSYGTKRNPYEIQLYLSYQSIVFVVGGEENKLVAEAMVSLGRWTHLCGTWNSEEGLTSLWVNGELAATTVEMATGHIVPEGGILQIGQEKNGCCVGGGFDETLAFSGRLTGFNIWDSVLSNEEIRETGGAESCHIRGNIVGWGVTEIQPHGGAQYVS

Legend:
[1] = biological target: recombinant human histone H1 (human) (UniProt P07305); test: ELISA binding assay, histone immobilized, anti-Myc detection (FIG. 2B)
[2] = biological target: recombinant human histone H1 (human) (UniProt P07305); test: ELISA, histone immobilized, HRP-anti-His detection (FIG. 8A)
[3] = biological target: recombinant human histone H1 (human) (UniProt P07305); test: SPR, histone immobilized; affinity attenuated by EDTA/EGTA (FIGS. 9A and C)
[4] = biological target: recombinant human histone H1 (human) (UniProt P07305); test: ELISA, histone immobilized, HRP-anti-PTX3 PPZ1228 detection, with CaCl2 or EDTA (FIG. 4)
[5] = biological target: recombinant human histone H1 (human) (UniProt P07305); test: ELISA binding assay and BIAcore SPR, histone immobilized (FIG. 1A)
[6] = biological target: recombinant human histone H1 (human) (UniProt P07305); test: ELISA, histone immobilized, HRP-anti-His detection
[7] = biological target: recombinant human histone H1 (human) (UniProt P07305); test: ELISA, histone immobilized, HRP-anti-His detection (FIG. 8B)
[8] = biological target: recombinant human histone H1 (human) (UniProt P07305); test: SPR, histone immobilized; affinity attenuated by EDTA/EGTA (FIGS. 9B and C)

| binding [1] | binding [2] | binding [3] | further results | Substance |
| --- | --- | --- | --- | --- |
| binds | binds | binds | – | Myc- and His-tagged N-terminal domain human PTX3 (animal cell expressed) (from UniProt P26022 18-178) |
| – | – | – | binding [4]: binds; binding [5]: binds | tag-free full-length recombinant human PTX3 (from UniProt P26022 18-381) |
| binds | – | binds | binding [6]: binds | Myc- and His-tagged C-terminal domain human PTX3 (animal cell expressed) (from UniProt P26022 179-381) |
| – | – | – | binding [7]: binds; binding [8]: binds | Escherichia coli-expressed N-terminal domain human PTX3 wherein the 47th, 49th, 103rd cysteine residues were replaced with serine residue (from UniProt P26022 18-178) |
| – | binds | binds | – | Myc- and His-tagged full-length human PTX3 (from UniProt P26022 18-381) |
